For test [1], the target named is p53-binding protein-1 (53BP1), endogenous (human (endogenous in U2OS)) (UniProt Q12888). Nature of the test: co-IP; 53BP1 immunoprecipitated with anti-53BP1 and Protein-A agarose from lysate of untreated (interphase) U2OS cells; blotted for Plk1.
The target is the same in test [2]. Nature of the test: co-IP; 53BP1 immunoprecipitated with anti-53BP1 and Protein-A agarose from 500 µg lysate of mitotic U2OS cells (paclitaxel 16 h, shake-off); blotted for Plk1.
Test [3] deals with Polo-like kinase-1 (Plk1), endogenous (human (endogenous in U2OS)) (UniProt P53350). Nature of the test: co-IP; anti-Plk1 immunoprecipitation from lysate of untreated U2OS cells; blotted for Plk1 and 53BP1.
Test [4] has the same target. The test is described as follows: co-IP; anti-Plk1 immunoprecipitation from lysate of U2OS cells treated with nocodazole for 16 h; blotted for Plk1 and 53BP1.

Amino acid sequences for entries named in this document (tags omitted).
UniProt Q12888: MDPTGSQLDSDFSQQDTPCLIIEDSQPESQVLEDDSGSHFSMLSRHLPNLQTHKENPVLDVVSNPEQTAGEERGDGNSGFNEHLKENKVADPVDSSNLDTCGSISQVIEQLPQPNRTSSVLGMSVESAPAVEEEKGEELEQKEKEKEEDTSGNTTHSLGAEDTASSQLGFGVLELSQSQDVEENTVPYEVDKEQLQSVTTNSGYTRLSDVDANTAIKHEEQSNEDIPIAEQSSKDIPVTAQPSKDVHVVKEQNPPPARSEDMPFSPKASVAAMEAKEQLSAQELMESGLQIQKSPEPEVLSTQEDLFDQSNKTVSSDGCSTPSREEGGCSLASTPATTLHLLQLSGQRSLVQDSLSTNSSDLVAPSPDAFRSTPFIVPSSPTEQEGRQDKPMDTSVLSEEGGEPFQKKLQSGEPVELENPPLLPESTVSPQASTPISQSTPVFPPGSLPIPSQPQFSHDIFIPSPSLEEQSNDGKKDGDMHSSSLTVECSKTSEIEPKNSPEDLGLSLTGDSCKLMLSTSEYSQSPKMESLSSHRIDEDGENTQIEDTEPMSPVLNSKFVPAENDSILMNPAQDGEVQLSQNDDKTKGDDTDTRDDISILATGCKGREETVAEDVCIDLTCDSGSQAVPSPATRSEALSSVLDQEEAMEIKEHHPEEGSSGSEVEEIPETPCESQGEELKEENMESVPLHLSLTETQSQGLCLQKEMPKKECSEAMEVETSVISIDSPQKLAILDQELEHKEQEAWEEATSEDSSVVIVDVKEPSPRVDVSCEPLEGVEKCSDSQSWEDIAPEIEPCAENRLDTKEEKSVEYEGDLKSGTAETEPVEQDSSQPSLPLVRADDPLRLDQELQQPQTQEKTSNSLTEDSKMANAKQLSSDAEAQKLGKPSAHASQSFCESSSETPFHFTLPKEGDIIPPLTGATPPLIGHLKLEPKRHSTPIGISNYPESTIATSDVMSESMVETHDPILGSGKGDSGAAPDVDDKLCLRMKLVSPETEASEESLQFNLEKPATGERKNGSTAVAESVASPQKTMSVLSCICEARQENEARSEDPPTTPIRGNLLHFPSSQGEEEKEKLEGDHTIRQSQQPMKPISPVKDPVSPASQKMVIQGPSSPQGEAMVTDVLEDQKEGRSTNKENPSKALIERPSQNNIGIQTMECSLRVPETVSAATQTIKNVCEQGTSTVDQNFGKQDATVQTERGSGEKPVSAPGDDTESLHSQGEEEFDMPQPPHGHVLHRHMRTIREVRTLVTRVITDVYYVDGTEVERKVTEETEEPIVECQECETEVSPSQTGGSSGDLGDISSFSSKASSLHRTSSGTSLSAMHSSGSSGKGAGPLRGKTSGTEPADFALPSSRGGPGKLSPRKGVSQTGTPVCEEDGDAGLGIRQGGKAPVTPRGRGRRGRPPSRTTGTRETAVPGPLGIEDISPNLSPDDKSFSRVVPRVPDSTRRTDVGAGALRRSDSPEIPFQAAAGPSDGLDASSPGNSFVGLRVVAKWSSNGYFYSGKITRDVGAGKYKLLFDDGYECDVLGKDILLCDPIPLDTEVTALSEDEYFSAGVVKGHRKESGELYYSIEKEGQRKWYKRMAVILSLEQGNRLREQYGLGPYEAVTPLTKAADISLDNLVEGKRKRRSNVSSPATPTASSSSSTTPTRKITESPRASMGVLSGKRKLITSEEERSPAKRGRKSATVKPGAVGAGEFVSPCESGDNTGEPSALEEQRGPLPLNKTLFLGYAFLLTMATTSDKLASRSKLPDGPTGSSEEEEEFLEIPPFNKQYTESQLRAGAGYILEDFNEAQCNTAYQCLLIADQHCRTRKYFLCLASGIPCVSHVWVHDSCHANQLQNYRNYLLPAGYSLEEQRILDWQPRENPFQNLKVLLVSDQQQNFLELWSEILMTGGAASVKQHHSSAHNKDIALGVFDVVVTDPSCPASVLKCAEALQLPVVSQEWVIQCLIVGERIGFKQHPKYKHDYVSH
UniProt P53350: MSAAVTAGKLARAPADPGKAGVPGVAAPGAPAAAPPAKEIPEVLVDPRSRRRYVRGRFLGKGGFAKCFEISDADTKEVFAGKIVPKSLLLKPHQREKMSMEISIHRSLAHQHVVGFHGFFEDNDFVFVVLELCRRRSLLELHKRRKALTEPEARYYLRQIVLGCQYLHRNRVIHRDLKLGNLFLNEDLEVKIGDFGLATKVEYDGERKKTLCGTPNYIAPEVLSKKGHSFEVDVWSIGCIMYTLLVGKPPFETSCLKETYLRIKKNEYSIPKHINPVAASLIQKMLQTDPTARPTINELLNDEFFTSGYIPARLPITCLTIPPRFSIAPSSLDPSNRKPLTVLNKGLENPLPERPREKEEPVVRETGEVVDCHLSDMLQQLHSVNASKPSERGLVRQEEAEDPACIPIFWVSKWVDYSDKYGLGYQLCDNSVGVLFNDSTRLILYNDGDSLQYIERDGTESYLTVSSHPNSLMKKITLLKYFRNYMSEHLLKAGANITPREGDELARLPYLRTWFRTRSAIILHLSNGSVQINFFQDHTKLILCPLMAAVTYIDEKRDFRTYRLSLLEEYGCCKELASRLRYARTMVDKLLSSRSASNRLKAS

These are yes or no findings as the source states them, for the method shown. Binding seen in cells or lysates may run through a third protein. Some results given as binding are weak or reduced against the parent protein; the word gives no strength.

These results are taken from PMC2811157.

Take “Polo-like kinase-1 (Plk1), endogenous (from UniProt P53350 1-603) (enzyme)”: the values for the binding result in test [1] and in test [2] were “no binding (condition: interphase cells)” and “binds”, respectively.

Turning to “p53-binding protein-1 (53BP1), endogenous (from UniProt Q12888 1-1972)”, the binding result in test [3] is “no binding (condition: interphase cells)”; in test [4], “binds”.
